Binding signal data for 1 sequence are collected here from paper PMC5996148.

Among the test systems are TXN2 (human); TXNDC1 (human); TXNDC9 (human); TXNL4A (human); TXNL4B (human); TYMS (human); TYW1 (human); Tachykinin-3 (human); Tafazzin (human).
Experiment in all cases: protein microarray (ProtoArray v5.0), streptavidin-Alexa Fluor 647
Holding throughout (conditions): 3'-biotin; 20 mM Tris (pH 7.5), 5 mM MgCl2, 100 mM KCl, 0.1% Tween-20, A/T-rich and random oligonucleotide blockers; temperature not stated; high values mean tight binding

Assay [1] deals with Taste receptor type 2 member 60 (human).

Some of the results follow.

For “GGGAGGCTGAGGCAGG [G4-1 biotinylated (PQS2)]”, the binding signal is -0.346 z-score with TXN2 (human); -0.338 z-score with TXNDC1 (human); -0.348 z-score in the assay on TXNDC9 (human); -0.31 z-score with TXNL4A (human); -0.334 z-score with TXNL4B (human); -0.3 z-score in the assay with TYMS (human). In addition, the binding signal in the assay on TYW1 (human) was -0.331 z-score; in the assay on Tachykinin-3 (human), -0.327 z-score; in the assay with Tafazzin (human) it was -0.283 z-score; in assay [1] it was -0.315 z-score.
